# Laboratory results as given in PubChem BioAssay AID1347423 (Functional Genomics Laboratory (NCATS/FGL), 2020).
# Out of some 52,000 sequences screened, about 210 (0.4%) were called active.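 Rule for the calls: active = gene whose silencing raises cell survival under the drug, median off-target-corrected z-score across its silencing RNAs 2 or more; inactive = the rest.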 Some of the results follow.
# Assay: Resistance to Poly (ADP-Ribose) Polymerase inhibitor: Gene Identification via Genome-wide siRNA Screen
# Conditions: mouse BRCA2 R2336H ES cells, olaparib, CellTiter-Glo viability; stronger effect = higher value
# Outline: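 Mouse BRCA2 R2336H ES cells were reverse-transfected with siRNA (20 nM final), treated at 48 h with 500 nM olaparib, and read by CellTiter-Glo after 72 h. Scores: MAD-based z per siRNA, median per gene, seed off-target correction.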
row,Sequence,z-score
1,GGGCUUAUUUAAAAAGAAGTT against Foxa1,inactive: -1.43
2,GCAAAGAUUCAGGCCUGUGTT against Tle6,inactive: -2.1
3,GGGAAAGCCAUAUUUUUUATT against Galr1,inactive: 1.61
4,GCAUAUGGAGCAACUUGCUTT against Dsg1c,inactive: 1.83
5,CAAUAGAGACUAGCCUCAUTT against Olfr160,inactive: 0.251
6,CAAGAAGGUCAUGUUAUUGTT against Olfr106,inactive: 0.823
7,GGCACCCAUUCCUAAAAUGTT against Nsbp1,inactive: 0.0676
8,GGCCUUUCCUCUACACCCUTT against BC033606,inactive: 1.11
9,GGACCUUACUCAUCUAGCATT against D630004N19Rik,inactive: 1.5
10,GGAGCACAUCUUUUCUGCCTT against Mixl1,inactive: -0.974
11,CGAAUUAAUCUCACAGGAGTT against 3100002B05Rik,inactive: 1.26
12,CCAUCUGUCAUGACUACCUTT against Timm10,inactive: -0.165
13,GGACAACACCCUGAUGAUATT against V1rh9,inactive: -0.57
14,GGAAGCAGUCAGCUAACACTT against Baz1b,inactive: -2.09
15,GGUAUUCCAGAGAAAGAUATT against Zfp207,inactive: -2.2
16,GCUGAGAUCUUACUAUUAGTT against Olfr1239,inactive: 0.0116
17,GUGCCAUGAAGAUCUCAAATT against 1110014K05Rik,inactive: 1.88
18,GCCUCAACCAAUCAUGAAGTT against Dbp,inactive: 1.06
19,CCUAAUGGUUCAGGAUACGTT against Pcdhb5,inactive: 0.473
20,GCUGACAACUGAUGGGAAGTT against C330027G06Rik,inactive: -1.41
21,GGAGAUCCACGAUUUGUUCTT against Adck1,inactive: 0.245
22,GGUGAAACGACUGUUAAGUTT against Pde7b,inactive: -0.925
23,GGAUCAUGUGUCAGUAACATT against Hmgn2,inactive: -0.568
24,GGGCAGCAGCAAUUUCUGUTT against Ahcyl1,inactive: 1.38
25,GCUCACCUUUCUUGAGAAATT against 4930579C12Rik,inactive: 0.795
26,CGCUAUGGUUUCUCAGCUUTT against Myh4,inactive: 0.634
27,GCCUAUUCCUACUUAUAACTT against 6030408C04Rik,inactive: 0.537

row,Sequence,z-score
1,GGAUGUAUAACUUUUUCUCTT against Pltp,inactive: 1.02
2,GCUAAGAAUGAGCAUUAUCTT against Npr2,inactive: -0.915
3,GCCCAUCAGACUUCUACUUTT against Slc22a17,inactive: -1.01
4,GUGCAAAUUACAGAAAUUCTT against Rkhd3,inactive: 0.22
5,GAUACUCUUUGGGCCAUUGTT against V2r4,inactive: -1.93
6,GGAAUUUCUACGGAAACAATT against Myom2,inactive: 1.27
7,GGAAGAGGAACAGUUAGCCTT against Zfp553,inactive: 1.4
8,GCUUAAGGAUCCAUAAUGUTT against Musk,inactive: -0.0655
9,GGAUCAAGCCGAACAGUUCTT against Pigk,inactive: -0.282
10,CGACAAAAGCCACCUUUCGTT against Tm4sf4,inactive: 2.82
11,GGCCUUUAGCACCUGUGUGTT against Olfr583,inactive: 0.153
12,GCUUGGACUGGAGUGAAGCTT against LOC208158,inactive: 0.525
13,GGCAUGAGGUUCAAGAUUUTT against Hsd17b9,inactive: 0.554
14,GGAGCUGAGAUCAAUUCAATT against Ankrd17,inactive: -0.638
15,GCCUUCUCCCAUGUCUAAATT against Bmp15,inactive: -0.991
16,GGAUUCAAACCUAAGUUUGTT against Mtap4,inactive: -0.246
17,GGAUCCUAGAAGCAGUUGCTT against Car4,inactive: 0.791
18,GGGUUUUCAGGAGUAUGUCTT against V1re8,inactive: 1.81
19,GUUCAUGUCUAUCCUGUCUTT against Hba-x,inactive: 0.36
20,GGCCUAAAAAGCAACAUGUTT against Cuzd1,inactive: 0.379
21,GGUCUCUCAUUACCACAUUTT against Olfr69,inactive: -0.013
22,GGGAACCUCUAUGACAAAATT against Nek9,inactive: 1.05
23,CCUGGAAUCCCAAGAACAGTT against Thap1,inactive: -0.751
24,GCGGAAUAUGUAAAAUCUCTT against Ppm1l,inactive: -0.804
25,GCAAAGGAUUGUUAAACUATT against Manba,inactive: 0.418
26,GCCAUUUUAGAGCAGAUCCTT against Rap2ip,inactive: -3.58
27,GCUACUUUCUAAGUGCCAUTT against Pdcd4,inactive: 0.426

row,Sequence,z-score
1,GCGUAGCAGCCUACAGUCATT against AU040377,inactive: -1.57
2,GGCGAACACUGUUUGAAGCTT against Ercc5,inactive: 0.548
3,GGAAAUCCCACCUGUGCCATT against Col8a1,inactive: 2.45
4,GCUUCUGUGGGCAACAGUUTT against Cryba1,inactive: -1.96
5,GGAAUUUCAUGGCAAGGGUTT against 1110001J03Rik,inactive: 1.31
6,CCAAACCAGAAUGUUAAAATT against Fgf12,inactive: 0.07
7,GGUCGCUUUGGCAUUAUGGTT against Mrpl22,inactive: 0.0442
8,GCCAAGACCUAUGAGUAUATT against Gm964,inactive: -0.564
9,CGGCGGUUUAAUGAAAAUATT against Cbfa2t2h,inactive: -1.7
10,GGAUUUGGGCCCAUUUUUGTT against Cntn1,inactive: -1.78
11,GCAUGUGGUUUCUAUAUAUTT against Sertad4,inactive: 1.31
12,GGUGGUGACAGCUGAACAATT against 4732465J04Rik,inactive: -0.626
13,GGACUCAGAAUUUUUUUGUTT against Mllt3,inactive: 0.186
14,GGGAGAUGGCGUGACAGAATT against Trappc3,inactive: -1.51
15,GGAGAAUCCUGUUUUUUGUTT against Elp4,inactive: 0.472
16,CCGCUAUCCUCUAUCUCCATT against Dhx34,inactive: -0.302
17,UGUCAGUGCAGAAUAGCACTT against Olfr658,inactive: -0.349
18,CCAUGAUUUACAAUACUACTT against Cebpg,inactive: 0.0942
19,GCCCUAGCUUGUAUGGUUCTT against Rsad1,inactive: 0.788
20,GGCCUGGCUGUGGAAUUCATT against Pvt1,inactive: -1.61
21,CCUAUAAGAUGUGCUCUAUTT against Carhsp1,inactive: -1.14
22,GGAAACAAAUUGACUGUUATT against Rnf35,inactive: -1.44
23,GUUGGAGUUGAGUGAUAUUTT against Krtap3-3,inactive: -1.09
24,GGUCCGAUUCAAAUACCCATT against 8430411H09Rik,inactive: -1.36
25,GGCUGAACAAAGGUAGAGATT against Ccl1,inactive: 0.285
26,CCUACGAGGAUACUUACAATT against 3000004C01Rik,inactive: -0.732
27,GGUUCUUCUGGCUAGGCACTT against Sgk,inactive: -0.574

# Some of the entries so far, as tab-separated lines:
row	Sequence	z-score
12	GGUGGUGACAGCUGAACAATT against 4732465J04Rik	inactive: -0.626
26	CCUACGAGGAUACUUACAATT against 3000004C01Rik	inactive: -0.732

# Remaining list, next part:

row,Sequence,z-score
1,GGUAUAAGGAAGGCCUUCUTT against Olfr186,inactive: 1.05
2,GGUAUGUGGCAUUUAUUUGTT against Hif1a,inactive: 1.27
3,GGAACUUGGCCUACUUAUGTT against C130071C03Rik,inactive: -0.817
4,GGAUGUCCCACUGCUUUACTT against 5730466C23Rik,inactive: -0.562
5,GGCCACAUGUGUGUUCUGATT against 5730455A04Rik,inactive: -1.41
6,GCAGUACCUGUUCAGUUCGTT against Slc26a4,inactive: -1.66
7,GGAGAAAUAUGUAUGUACATT against Ece2,inactive: 1.95
8,GGGAAAUCUAUUUUUGUGATT against Mobkl2c,inactive: -0.0618
9,GGUUUGGUGUCAGGUGACATT against Olfr1181,inactive: -1.18
10,GGCUGUUCGUGCAAGCCUATT against BC060615,inactive: 0.876
11,GGCUUAAGGCUAAUGGUCUTT against Fxyd5,inactive: 1.24
12,CCCUAUACAGCGUACCCAATT against Eya2,inactive: -2.27
13,CCGUGGACUAUAACAACUCTT against GnT-IX,inactive: 0.0945
14,CGAGAUUUUUGUAUCGUUUTT against Csrp2bp,inactive: 0.147
15,GGACGUGCUCCUUAAACUCTT against Snx8,inactive: -0.327
16,CCAGAGGCCAUAGUUAUGUTT against Hsn2,inactive: 0.363
17,GGUCUCACUGAAAAUGAAATT against Ces1,inactive: 1.03
18,GGAGCAGGAGAAAAUUUUGTT against Olfr437,inactive: -0.0423
19,GCAGACCCAGUUUUGACAATT against Llglh,inactive: -0.348
20,GGACCAUCGAAGAUGACUUTT against Pus1,inactive: 0.00935
21,GGUGAUGUUUUAUGGCAGGTT against Olfr1335,inactive: 0.775
22,CCUUGUGAAUACCCUAAUUTT against Mrpl43,inactive: 0.236
23,GGACUUGAUUGAAGUCAUATT against C630028F04Rik,inactive: 1.11
24,GCAGGAGUAAGAAUGAAUGTT against Luzp1,inactive: 0.871

# Pulled one by one from the entries so far (7):
row,Sequence,z-score
21,GGUGAUGUUUUAUGGCAGGTT against Olfr1335,inactive: 0.775
8,GGGAAAUCUAUUUUUGUGATT against Mobkl2c,inactive: -0.0618
12,CCCUAUACAGCGUACCCAATT against Eya2,inactive: -2.27
16,CCAGAGGCCAUAGUUAUGUTT against Hsn2,inactive: 0.363
20,GGACCAUCGAAGAUGACUUTT against Pus1,inactive: 0.00935
14,CGAGAUUUUUGUAUCGUUUTT against Csrp2bp,inactive: 0.147
3,GGAACUUGGCCUACUUAUGTT against C130071C03Rik,inactive: -0.817
